Assay results reported in patent US20100035932A1, “NOVEL FORMYL PEPTIDE RECEPTOR LIKE 1 AGONISTS THAT INDUCE MACROPHAGE TUMOR NECROSIS FACTOR ALPHA AND COMPUTATIONAL STRUCTURE-ACTIVITY RELATIONSHIP ANALYSIS OF THEREOF” (priority 2008, published 2010).

Test: Endotoxin assay (Limulus Amebocyte Lysate)
Conditions: below detection limit

Compound | Endotoxin contamination
O=C(N/N=C/c1ccc(-c2cccc(Br)c2)o1)c1cccnc1 [Compound 1] | contained no endotoxin
O=C(N/N=C/c1ccc(-c2cccc(C(F)(F)F)c2)o1)c1ccc(F)cc1 [Compound 2, 4-fluoro-benzoic acid [5-(3-trifluoromethyl-phenyl)-2-furyl]methylene-hydrazide] | contained no endotoxin
